HELM strings list residues between dots; [ac] is acetyl, [am] amide, other brackets name non-standard units.
Experiment: general procedure: Fmoc solid-phase peptide synthesis
Conditions: whole synthesis, 214 nm

Substance | final purity (method not given) [%]
PEPTIDE1{[2ClZ].[dY].[dD].[dH].[dQ].[am]}$$$$V2.0 | 97
PEPTIDE1{[ac].W.E.K.W.[am]}$$$$V2.0 | 97
Ac-YEHF-NH2 | 95
z-YERF-NH2 (z-DTP2) | 97
Ac-YEKW-NH2 | > 99
PEPTIDE1{[2ClZ].[dY].[dD].[dH].[dF].[am]}$$$$V2.0 | 96
2CI-z-YERF-NH2 | 96
PEPTIDE1{[ac].W.D.R.W.[am]}$$$$V2.0 | 97
Ac-WEHF-NH2 | 96
PEPTIDE1{[ac].Y.E.R.F.[am]}$$$$V2.0 | 96
z-YDHF-NH2 (z-DTP1) | 97
Ac-YDKF-NH2 | 95
Ac-WDKF-NH2 | 96
Ac-YDRW-NH2 | 95
PEPTIDE1{[ac].W.E.R.F.[am]}$$$$V2.0 | 95
PEPTIDE1{[ac].W.E.H.W.[am]}$$$$V2.0 | 97
Ac-WDRF-NH2 | 97
z-YDHQ-NH2 (z-DNC) | 96
PEPTIDE1{[Bz].[dY].[dD].[dH].[dQ].[am]}$$$$V2.0 | 98

Substance | final purity (method not given) [%]
PEPTIDE1{[ac].Y.E.H.W.[am]}$$$$V2.0 | 97
PEPTIDE1{[ac].Y.D.H.F.[am]}$$$$V2.0 | 97
PEPTIDE1{[Myr].[dY].[dD].[dH].[dF].[am]}$$$$V2.0 | 95
3-hydroxy-4-methoxy-benzyl-YERF-NH2 | 95
PEPTIDE1{[Bz].[dY].[dE].[dR].[dF].[am]}$$$$V2.0 | 97
PEPTIDE1{[Myr].[dY].[dE].[dR].[dF].[am]}$$$$V2.0 | 97
PEPTIDE1{[ac].Y.D.K.W.[am]}$$$$V2.0 | 96
PEPTIDE1{[ac].W.D.H.F.[am]}$$$$V2.0 | 97
PEPTIDE1{[ac].W.E.R.W.[am]}$$$$V2.0 | 97
PEPTIDE1{[ac].W.E.K.F.[am]}$$$$V2.0 | 97
Ac-YDHW-NH2 | 95
PEPTIDE1{[Myr].[dY].[dD].[dH].[dQ].[am]}$$$$V2.0 | 97
Ac-WDHW-NH2 | > 99
Ac-YERW-NH2 | 96
Ac-YDRF-NH2 | 95
PEPTIDE1{[ac].W.D.K.W.[am]}$$$$V2.0 | 97
PEPTIDE1{[Bz].[dY].[dD].[dH].[dF].[am]}$$$$V2.0 | 97
PEPTIDE1{[ac].Y.E.K.F.[am]}$$$$V2.0 | 95

— paper PMC4197335 (Cancer Cell, 2014)
